Source: patent US12398093B2, “Compounds and methods for treating inflammatory disorders” (Board of Supervisors of Louisiana State University and …, priority 2019, dated 2025)

Tested on: C57BL/6J mice
Test: Head twitch response (HTR), magnetometer detection
Type: in vivo
Settings: 5-min blocks, 210 min
Procedure: The head twitch response (HTR) can be used as a behavioral proxy in rodents for human hallucinogenic effects, because it can reliably distinguish hallucinogenic and non-hallucinogenic 5-HT2A receptor agonists. […] HTR studies were conducted with (R)-DOI and 2C-iBu in C57BL/6J mice.
Male C57BL/6J mice (6-8 weeks old) obtained from Jackson Laboratories (Bar Harbor, ME, USA) were housed at up to four per cage in a climate-controlled room on a reverse-light cycle (lights on at 1900 h, off at 0700 h) and were provided with ad libitum access to food and water, except during behavioral testing. Testing was conducted between 1000 and 1800 h.
Drug doses are based on the equivalent freebase weight. […]
The HTR was assessed using a head-mounted magnet and a magnetometer detection coil, according to known methods. […] Mice were injected with drug or vehicle and then HTR activity was recorded in a glass cylinder surrounded by a magnetometer coil. […]
Experiment 1. Five groups of mice (n=6/group, 30 total) were treated with vehicle or R-DOI (0.1, 0.3, 1, or 3 mg/kg) and HTR activity was assessed for 30 minutes. […] Five groups of mice (n=6-7/group, 34 total) were treated with vehicle or 2C-iBu (0.3, 1, 3, or 10 mg/kg) and HTR activity was assessed for 30 minutes. […] Two groups of mice (n=7/group, 14 total) were treated with R-DOI (1 mg/kg) or 2C-iBu (3 mg/kg) and HTR activity was assessed for 210 minutes. […]

| Compound | Time of HTR peak after administration (Experiment 3, 1 mg/kg SC) | Time of HTR peak after administration (Experiment 3, 3 mg/kg SC) |
| --- | --- | --- |
| COc1cc(C[C@@H](C)N)c(OC)cc1I [R-DOI] | 5 to 10 min |  |
| COc1cc(CC(C)C)c(OC)cc1CCN [2C-iBu, 2,5-dimethoxy-4-isobutylphenethylamine] |  | 20 to 25 min |
